Measurements published in US12195506B2, “Immunotherapy with A*01 restricted peptides and combination of peptides against cancers and related methods” (Immatics Biotechnologies GmbH, priority 2018, dated 2025).

What was measured:
[1] = system: HLA molecules of primary tumors and normal tissue samples; assay: Identification and relative quantitation of HLA ligands by LC-MS (peptide presentation on tumor versus normal tissue); design: species or system human; settings: cancer entities on which the peptide was found presented (HLA ligands, LC-MS); abbreviations as in title of Table 8
[2] = system: source genes (mRNA); assay: Expression profiling of genes encoding the peptides (RNAseq, tumor versus normal tissues); design: species or system human; settings: for Gene Expression in tumor samples: Highly over-expressed (++): tumor types in which the source gene is highly over-expressed (++) compared to a panel of normal tissues
[3] = source gene of the peptide, value = tumor type in which the gene is over-expressed compared to a panel of normal tissues
[4] = tumor types in which the source gene is over-expressed (+) compared to a panel of normal tissues

| Substance | Peptide Presentation on cancer entities [1] | Gene Expression in tumor samples: over-expressed (+) [2, 3] | Gene Expression in tumor samples: over-expressed (+) [2, 4] | Gene Expression in tumor samples: Highly over-expressed (++) [2] |
| --- | --- | --- | --- | --- |
| 281: peptide found in NUP155 (gene looked up) (YPDLSELLM; listed as Homo sapiens) [compound 281] | AML, RCC, UEC | CCC; MEL and OSCAR and UBC | – | – |
| 293: peptide found in SLC6A5 (gene looked up) (IISVLIAIY; listed as Homo sapiens) [compound 293] | BRCA | SCLC | – | – |
| 305: peptide found in MYO3B (gene looked up) (YADLLIYTY; listed as Homo sapiens) [compound 305] | NSCLCadeno, UBC | – | HNSCC, OC, UBC, UEC | – |
| 315: peptide found in CCDC6 (gene looked up) (VLKIELETY; listed as Homo sapiens) [compound 315] | GBM, GC, NSCLCadeno, NSCLCsquam, OC, PACA, PRCA, RCC | – | OC, UEC | – |
| 328: peptide found in HUNK (gene looked up) (LLDEDNNIKL; listed as Homo sapiens) [compound 328] | GBC | – | CRC, SCLC | – |
| 345: peptide found in SLC12A2 (gene looked up) (NTMDAVPRIDHY; listed as Homo sapiens) [compound 345] | GBC, GC | – | CRC | – |
| 349: peptide found in OR5AC2 (gene looked up) (HLLSVSLYY; listed as Homo sapiens) [compound 349] | NSCLCsquam | – | HCC | – |
| 359: peptide found in ADCY10 (gene looked up) (NKEINYFMY; listed as Homo sapiens) [compound 359] | CCC | – | HCC | – |
| 361: peptide found in AR (gene looked up) (FTAEEGQLY; listed as Homo sapiens) [compound 361] | BRCA, GBC, GBM, HCC, NSCLCadeno, NSCLCother, NSCLCsquam, PACA, PRCA, RCC, SCLC, UBC, UEC | – | HCC, PRCA | – |
| 362: peptide found in AR (gene looked up) (SGALDEAAAY; listed as Homo sapiens) [compound 362] | GBM, NSCLCadeno, PRCA | – | HCC, PRCA | – |
| 374: peptide found in CDK6 (gene looked up) (LTSVVVTLW; listed as Homo sapiens) [compound 374] | HCC | – | AML | – |
| 381: peptide found in NRG1 (gene looked up) (ETSFSTSHY; listed as Homo sapiens) [compound 381] | HNSCC | – | HNSCC, OSCAR | – |
| 386: peptide found in KISS1R (gene looked up) (NSALNPLLY; listed as Homo sapiens) [compound 386] | BRCA, NSCLCadeno | – | NSCLCadeno, UEC | RCC |
| 387: peptide found in TYR (gene looked up) (LMEKEDYHSLY; listed as Homo sapiens) [compound 387] | MEL | – | – | MEL |
| 389: peptide found in DNTT (gene looked up) (YYDLVESTF; listed as Homo sapiens) [compound 389] | AML | – | – | AML |
| 398: peptide found in SLC12A2 (gene looked up) (YYYDTHTNTY; listed as Homo sapiens) [compound 398] | HNSCC, PRCA | – | CRC | – |

For part of these data: Expression values are those of the mRNA of the gene that encodes the peptide; a gene is named only where it was looked up.
